In patent publication US20050163775A1, “Combination therapy for B cell disorders” (Genentech, Inc., priority 2003, published 2005):
These are yes or no findings as the source states them, for the method shown. Some binding calls cover weakened binding; strength is not graded here.

Chains of the proteins cited; added tags and fusions are not shown. Lines headed by an entry give the natural chain unless they say otherwise; changes in a name come on top.
UniProt Q9Y275: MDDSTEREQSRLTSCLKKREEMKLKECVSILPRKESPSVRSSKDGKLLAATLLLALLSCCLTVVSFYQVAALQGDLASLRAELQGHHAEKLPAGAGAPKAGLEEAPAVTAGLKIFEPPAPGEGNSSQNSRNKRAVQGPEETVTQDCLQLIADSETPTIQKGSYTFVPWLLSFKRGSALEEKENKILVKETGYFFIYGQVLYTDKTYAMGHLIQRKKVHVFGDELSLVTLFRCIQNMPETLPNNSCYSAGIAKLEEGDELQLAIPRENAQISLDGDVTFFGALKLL

Target: T1, human BAFF (residues 82-285) (human, UniProt Q9Y275 82-285)
T1 construct: Coated on plates in the ELISAs; also used biotinylated or free in solution for phage sorting; also called BAFF82-285; BLyS82-285
Test: phage display selection on BAFF

With ECFDPLVRHWVPCNLLRGAGSP [SEQ ID NO 111] the binding was “binds”.
